Measurements as given in PubChem BioAssay AID2685 (National Center for Advancing Translational Sciences (NCATS), 2010).
This is one part of the list. These are further read-outs of the screen, such as a control signal, another cell line or another target. No call is given for them. Most of these compounds were active or inconclusive in the main read-out, so they are no random draw. The note in brackets gives the kind of curve behind each potency; many fits are weak.

Assay: qHTS Assay for Lipid Storage Modulators in Drosophila S3 Cells;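 on cell number change: cells counted by Cell Tracker Red CMTPX staining in the red channel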
Settings: BODIPY lipid droplet fluorescence, 18-24 h; for cell number change: measured here: cell count max response, cells fed with added oleic acid
In short: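 Laser-scanning cytometry quantifies lipid droplet accumulation (500–530 nm total intensity; droplet/cell object ratio) in oleic acid-fed (400 uM added) Drosophila S3 cells treated with a concentration series. 20 uM Triacsin C defined 100% inhibition.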

[1] = measured here: cell number channel AC50, cells fed with added oleic acid
[2] = measured here: lipid fluorescence (Fed channel) AC50, cells fed with added oleic acid

| Structure (SMILES) | cell number change [%] | AC50 [1] | AC50 [2] |
| --- | --- | --- | --- |
| CCOC(=O)c1sc(N2C(=O)C(O)=C(C(=O)c3ccc(C)o3)C2c2cccc([N+](=O)[O-])c2)nc1C (stereo unspecified) | -36.5 | 16.4 µM [falling, single point] | 29.1 µM [falling, single point] |
| CCS(=O)(=O)C1=NN2C(=N)/C(=C\c3ccc(OS(=O)(=O)c4ccccc4)c(OC)c3)C(=O)N=C2S1 | -7.08 | 6.51 µM [falling, single point] | 0.58 µM [falling, single point] |
